Results reported in PMC10504565.
No constants are given. Whether binding was seen depends on the method and setting. In cells and extracts the contact can be indirect. Some binding calls cover weakened binding; strength is not graded here.

Amino acid sequences for entries named in this document (tags omitted). A change or cut given only in a name is not applied to a line headed by its entry.
UniProt P29350: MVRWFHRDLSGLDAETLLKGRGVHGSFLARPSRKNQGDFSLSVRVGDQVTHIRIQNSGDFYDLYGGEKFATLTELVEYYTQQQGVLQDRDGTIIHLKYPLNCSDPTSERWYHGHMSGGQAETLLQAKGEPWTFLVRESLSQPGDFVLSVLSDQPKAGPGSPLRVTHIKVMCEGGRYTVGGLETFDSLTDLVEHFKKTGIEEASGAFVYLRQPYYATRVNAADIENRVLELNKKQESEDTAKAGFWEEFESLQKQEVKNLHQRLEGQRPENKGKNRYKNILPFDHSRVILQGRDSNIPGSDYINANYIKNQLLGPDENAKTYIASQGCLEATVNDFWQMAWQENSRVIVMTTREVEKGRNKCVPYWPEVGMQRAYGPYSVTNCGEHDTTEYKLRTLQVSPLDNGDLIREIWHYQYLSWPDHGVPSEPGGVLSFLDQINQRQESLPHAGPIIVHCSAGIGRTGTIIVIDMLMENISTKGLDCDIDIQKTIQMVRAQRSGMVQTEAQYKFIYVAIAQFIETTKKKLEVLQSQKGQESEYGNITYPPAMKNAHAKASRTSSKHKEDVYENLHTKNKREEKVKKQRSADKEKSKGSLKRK
UniProt P42229: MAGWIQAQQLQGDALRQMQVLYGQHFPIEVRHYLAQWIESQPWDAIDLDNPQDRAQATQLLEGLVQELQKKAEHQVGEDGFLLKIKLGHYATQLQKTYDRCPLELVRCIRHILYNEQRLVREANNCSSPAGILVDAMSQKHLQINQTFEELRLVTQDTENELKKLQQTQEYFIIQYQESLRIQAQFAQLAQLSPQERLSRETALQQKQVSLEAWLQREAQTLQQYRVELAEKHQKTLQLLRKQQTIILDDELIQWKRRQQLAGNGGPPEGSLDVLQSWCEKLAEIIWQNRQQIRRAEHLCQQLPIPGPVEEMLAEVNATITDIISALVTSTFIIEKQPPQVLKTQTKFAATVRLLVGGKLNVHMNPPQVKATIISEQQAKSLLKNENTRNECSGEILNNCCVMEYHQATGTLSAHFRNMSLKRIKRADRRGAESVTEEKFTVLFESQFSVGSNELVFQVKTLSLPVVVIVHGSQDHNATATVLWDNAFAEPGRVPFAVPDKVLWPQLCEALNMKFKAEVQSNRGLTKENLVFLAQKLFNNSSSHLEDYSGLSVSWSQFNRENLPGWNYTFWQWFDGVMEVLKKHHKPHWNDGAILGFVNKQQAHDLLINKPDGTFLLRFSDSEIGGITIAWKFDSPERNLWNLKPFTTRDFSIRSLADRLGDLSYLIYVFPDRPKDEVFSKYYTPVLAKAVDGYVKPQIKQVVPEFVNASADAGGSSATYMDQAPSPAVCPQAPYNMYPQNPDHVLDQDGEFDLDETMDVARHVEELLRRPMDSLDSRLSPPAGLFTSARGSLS
UniProt P51692: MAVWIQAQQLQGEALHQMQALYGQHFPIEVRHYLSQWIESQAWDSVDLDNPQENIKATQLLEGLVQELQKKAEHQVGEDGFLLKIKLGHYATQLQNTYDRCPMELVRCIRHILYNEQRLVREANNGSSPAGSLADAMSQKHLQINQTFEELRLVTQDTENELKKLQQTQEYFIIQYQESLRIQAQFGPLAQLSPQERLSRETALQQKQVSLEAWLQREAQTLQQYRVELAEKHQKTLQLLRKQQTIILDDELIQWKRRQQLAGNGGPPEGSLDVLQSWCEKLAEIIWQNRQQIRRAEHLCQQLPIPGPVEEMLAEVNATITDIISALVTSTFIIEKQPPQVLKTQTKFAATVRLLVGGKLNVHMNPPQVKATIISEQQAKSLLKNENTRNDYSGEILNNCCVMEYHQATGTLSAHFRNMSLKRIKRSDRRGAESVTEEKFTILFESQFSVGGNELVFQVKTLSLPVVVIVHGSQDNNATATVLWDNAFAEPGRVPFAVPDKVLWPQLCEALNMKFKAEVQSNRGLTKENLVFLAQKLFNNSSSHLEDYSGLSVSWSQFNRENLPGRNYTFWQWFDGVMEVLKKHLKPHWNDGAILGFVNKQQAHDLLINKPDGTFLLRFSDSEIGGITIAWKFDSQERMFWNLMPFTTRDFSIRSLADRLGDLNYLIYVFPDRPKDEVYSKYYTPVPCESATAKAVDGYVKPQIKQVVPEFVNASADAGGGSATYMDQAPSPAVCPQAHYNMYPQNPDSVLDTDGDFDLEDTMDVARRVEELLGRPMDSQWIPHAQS

Legend:
[1] = target: FLAG3-SHP-1-C453S, transiently expressed in HepG2 cells (UniProt P29350); experiment: co-IP; HepG2 cells cotransfected with FLAG3-SHP-1 constructs and Myc3-POLR2J, Myc3-POLR2C or V5-STAT5A, harvested after 24 h; lysis in 20 mM Tris-HCl pH 7.5, 140 mM NaCl, 1% NP-40, 10% glycerol
[2] = target: FLAG3-SHP-1 (WT), transiently expressed in HepG2 cells (UniProt P29350); experiment: as above
[3] = target: FLAG3-SHP-1-C453S, transiently expressed in HepG2 cells (UniProt P29350); experiment: co-IP; HepG2 cells coexpressing FLAG-tagged STAT5B and FLAG-tagged SHP-1 constructs; immunoprecipitation with a SHP-1-specific antibody
[4] = target: FLAG3-SHP-1 (WT), transiently expressed in HepG2 cells (UniProt P29350); experiment: as above

| binding [1] | binding [2] | binding [3] | binding [4] | Substance |
| --- | --- | --- | --- | --- |
| binds | binds |  |  | V5-tagged STAT5A, transiently expressed in HepG2 cells (from UniProt P42229 1-794) |
|  |  | binds | binds | FLAG-tagged STAT5B, transiently expressed in HepG2 cells (from UniProt P51692 1-787) |
